Consider 39 molecules from the supplement of paper PMC8326762, “A Small Molecule Inhibitor of Pex3–Pex19 Interaction Disrupts Glycosome Biogenesis and Causes Lethality in Trypanosoma brucei” (Frontiers in Cell and Developmental Biology, 2021).

Structures can show the parent of a compound that is named as a salt. The list shows a part of the results. The data scatter; read single values as rough.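 Optical density at 600 nm measured yeast growth. Because the two-hybrid strains grew without histidine, growth required Pex3–Pex19 binding. Trypanosome selectivity meant a compound inhibited the trypanosome-pair strain's growth by more than 65% but the human-pair strain's by less than 65%.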

The test has as its system T. brucei Pex3-Pex19 interaction (yeast two-hybrid). The test can be described thus: growth inhibition of yeast two-hybrid strain reporting TbPex3-TbPex19 interaction, relative to DMSO; higher = stronger inhibition of T. brucei Pex3-Pex19 interaction / growth. Conditions: 100 µM; 24 h.
With `O=C(O)c1cc([N+](=O)[O-])ccc1NCCCc1ccccc1` [5-Nitro-2-(3-phenylpropylamino)benzoic acid], the growth inhibition was 47.6%.

As for `COc1cccc(OC)c1OCCNCC1CSc2ccccc2O1` (centres undefined) [Benoxathian hydrochloride], the growth inhibition is 45.7%.

With `O=C(CCc1ccc(O)cc1)c1c(O)cc(O)cc1O` [Phloretin], the growth inhibition is 56.5%.

Take `N[C@@H](C(=O)N[C@@H]1C(=O)N2C(C(=O)O)=C(Cl)CS[C@H]12)c1ccccc1` [Cefaclor]: the growth inhibition came to 61.5%.

Turning to `CC(C)N(CCC(=O)c1ccc2ccccc2c1)Cc1ccccc1`, the growth inhibition is 82.4%.

In turn, `CC(C)c1ccc2c(c1)c(SC(C)(C)C)c(CC(C)(C)C(=O)O)n2Cc1ccc(Cl)cc1` registered a growth inhibition of 23.9%.

Turning to `Cn1cc(C2=C(c3ccc(Cl)cc3Cl)C(=O)NC2=O)c2ccccc21`, the growth inhibition was found to be 43.6%.

`CCCn1c(=O)c(C)cn2nc(N)nc12` returned a growth inhibition of 73.8%.

The molecule `Cc1cccc(C2CN(C)CCc3c2cc(O)c(O)c3Cl)c1` (centres undefined) displayed a growth inhibition of 69.2%.

`CC(=O)O[C@H]1C[C@@]2(C)[C@@H](C[C@@H](O)[C@H]3[C@@]4(C)CC[C@@H](O)[C@@H](C)[C@@H]4CC[C@@]32C)/C1=C(\CCC=C(C)C)C(=O)O` [Fusidic acid sodium] yielded a growth inhibition of 29.7%.

As to `CN1[C@@H]2CC[C@H]1C[C@@H](OC(c1ccccc1)c1ccccc1)C2` [Benztropine mesylate], the growth inhibition was 64.2%.

`CC(=O)NC[C@H]1CN(c2ccc(N3CCOCC3)c(F)c2)C(=O)O1` [Linezolid]: the growth inhibition was 63.7%.

`NC(=O)c1ncn([C@@H]2O[C@H](CO)[C@@H](O)[C@H]2O)c1O` [Mizoribine] registered a growth inhibition of 72.6%.

Consider `COC(=O)[C@H]1[C@H]2C[C@H]3c4[nH]c5ccccc5c4CCN3C[C@H]2CC[C@@H]1O` [Rauwolscine hydrochloride], for which the growth inhibition amounted to 70.2%.

In the case of `Nc1ccc(-c2nc3ccc(-c4nc5ccc(N)cc5[nH]4)cc3[nH]2)cc1`, the growth inhibition came to 63%.

`c1ccc(-c2ccccn2)nc1` [2,2'-Bipyridyl] displayed a growth inhibition of 54.3%.

`O=C1/C(=C/c2cccs2)CC/C1=C\c1cccs1` registered a growth inhibition of 41.7%.

`Nc1cc2c(ncn2CCOCP(=O)(O)O)c(=O)[nH]1` [PMEG hydrate] gave a growth inhibition of 72.1%.

Regarding `Oc1cc2c(c(Cl)c1O)CCNCC2c1ccccc1` (racemic) [(±)-6-Chloro-PB hydrobromide], the growth inhibition was determined as 62.1%.

As for `OC(CN1CCC(Cc2ccc(F)cc2)CC1)c1ccc(Cl)cc1` (centres undefined) [Eliprodil], the growth inhibition was 46.3%.

On to `COc1cc2nc(N3CCN(C(=O)C4COc5ccccc5O4)CC3)nc(N)c2cc1OC` (centres undefined) [Doxazosin mesylate], for which the growth inhibition was 45.1%.

In turn, `CCCNC(C)C(=O)Nc1ccccc1C` (centres undefined) [Prilocaine hydrochloride] displayed a growth inhibition of 69.1%.

Molecule `NC(=O)c1cc[n+](CC2=C(C(=O)O)N3C(=O)[C@@H](NC(=O)C(c4ccccc4)S(=O)(=O)[O-])[C@H]3SC2)cc1` (some centres undefined) [Cefsulodin sodium salt hydrate] registered a growth inhibition of 56.7%.

On to `CCOC(=O)Nc1ccc(NCc2ccc(F)cc2)nc1N` [Flupirtine maleate], for which the growth inhibition came to 50.5%.

In turn, `CC(C)C(=O)c1c(C(C)C)nn2ccccc12` [Ibudilast] showed a growth inhibition of 38.8%.

With `O=C1CCC(N2C(=O)c3ccccc3C2=O)C(=O)N1` (racemic) [(±)-Thalidomide], the growth inhibition worked out at 69.1%.

The molecule `CN(C)CCC(c1ccc(Cl)cc1)c1ccccn1` (racemic) [(±)-Chlorpheniramine maleate] gave a growth inhibition of 55.1%.

Molecule `Oc1ccc(C2CNCCc3c2cc(O)c(O)c3Cl)cc1` (centres undefined) [Fenoldopam bromide] came in with a growth inhibition of 32.5%.

With `CCCCC1C(=O)N(c2ccccc2)N(c2ccccc2)C1=O` [Phenylbutazone], the growth inhibition is 36.3%.

The molecule `CCOC(=O)c1ccc(C#Cc2ccc3c(c2)C(C)(C)CCS3)nc1` [Tazarotene] registered a growth inhibition of 53.3%.

Molecule `CC(C)(Oc1ccc(C2CC2(Cl)Cl)cc1)C(=O)O` (centres undefined) [Ciprofibrate] came in with a growth inhibition of 40.1%.

The molecule `CN(C)c1ccc(/C=C2/C(=O)Nc3ccccc32)cc1` gave a growth inhibition of 28.3%.

In turn, `O=C(Nc1ccncc1)c1cc([N+](=O)[O-])ccc1Cl` registered a growth inhibition of 67.1%.

As for `CC(C)NCC(O)c1ccc(NS(C)(=O)=O)cc1` (racemic) [(±)-Sotalol hydrochloride], the growth inhibition worked out at 59.7%.

On to `c1ccc2c(c1)CCCC2C1=NCCN1` (centres undefined) [Tetrahydrozoline hydrochloride], for which the growth inhibition is 74.3%.

Turning to `CCOC(=O)C(C)(C)Oc1ccc(Cl)cc1` [Clofibrate], the growth inhibition was 46.8%.

`Cc1ccccc1C(OCCN(C)C)c1ccccc1` (centres undefined) [Orphenadrine hydrochloride] had a growth inhibition of 58.2%.

The molecule `CCC(NC(C)C)C(O)c1ccc(O)c(O)c1` (centres undefined) [Isotharine mesylate] yielded a growth inhibition of 55.1%.

`CC(C)Cc1ccc(C(C)C(=O)O)cc1` (racemic) [(±)-Ibuprofen] returned a growth inhibition of 78.6%.
